The other results are listed elsewhere or left out. The calls rarely recur for the same compound in another form.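 In K562 cells expressing nanoluciferase-fused kinases, luminescence was recorded at 4 h intervals between 2 and 18 h, normalized as percent of control with DMSO at 100% and a positive control at 0%. A significant (2 sigma) signal drop marks a time point as decreased. The authors' rule for a hit is not shown and takes in more than the number of time points.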
compound: C=CC(=O)Nc1cc(Nc2nccc(-c3cn(C)c4ccccc34)n2)c(OC)cc1N(C)CCN(C)C [Osimertinib mesylate]; test: number of time points (of 5) at which kinase-Nluc abundance scored as decreased, DMSO-normalised (count); higher = more persistent destabilization; details: 2.5 µM; K562; 2-18 h

Chains of the proteins cited; added tags and fusions are not shown. Lines headed by an entry give the natural chain unless they say otherwise; changes in a name come on top.
UniProt Q9UBF8: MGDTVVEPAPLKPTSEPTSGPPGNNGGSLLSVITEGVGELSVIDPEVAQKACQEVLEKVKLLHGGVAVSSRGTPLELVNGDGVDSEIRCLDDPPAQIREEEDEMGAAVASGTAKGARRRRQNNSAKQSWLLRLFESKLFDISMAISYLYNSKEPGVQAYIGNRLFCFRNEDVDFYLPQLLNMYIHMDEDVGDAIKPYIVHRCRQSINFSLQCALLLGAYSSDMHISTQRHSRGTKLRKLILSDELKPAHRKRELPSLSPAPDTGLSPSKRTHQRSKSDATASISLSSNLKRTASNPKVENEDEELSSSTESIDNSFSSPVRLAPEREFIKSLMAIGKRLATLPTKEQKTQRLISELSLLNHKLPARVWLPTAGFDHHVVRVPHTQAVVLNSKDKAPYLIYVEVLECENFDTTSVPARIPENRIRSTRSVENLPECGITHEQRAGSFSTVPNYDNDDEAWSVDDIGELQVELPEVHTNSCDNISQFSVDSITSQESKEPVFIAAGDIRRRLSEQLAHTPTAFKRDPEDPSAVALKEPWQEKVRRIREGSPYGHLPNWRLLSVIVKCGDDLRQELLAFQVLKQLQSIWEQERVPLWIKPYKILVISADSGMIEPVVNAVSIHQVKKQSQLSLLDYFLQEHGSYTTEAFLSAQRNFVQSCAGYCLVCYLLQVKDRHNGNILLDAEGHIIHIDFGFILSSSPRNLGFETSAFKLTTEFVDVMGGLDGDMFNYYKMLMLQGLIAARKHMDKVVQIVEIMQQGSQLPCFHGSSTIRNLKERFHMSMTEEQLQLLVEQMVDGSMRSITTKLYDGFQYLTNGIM
UniProt Q14289, whole entry, looked up: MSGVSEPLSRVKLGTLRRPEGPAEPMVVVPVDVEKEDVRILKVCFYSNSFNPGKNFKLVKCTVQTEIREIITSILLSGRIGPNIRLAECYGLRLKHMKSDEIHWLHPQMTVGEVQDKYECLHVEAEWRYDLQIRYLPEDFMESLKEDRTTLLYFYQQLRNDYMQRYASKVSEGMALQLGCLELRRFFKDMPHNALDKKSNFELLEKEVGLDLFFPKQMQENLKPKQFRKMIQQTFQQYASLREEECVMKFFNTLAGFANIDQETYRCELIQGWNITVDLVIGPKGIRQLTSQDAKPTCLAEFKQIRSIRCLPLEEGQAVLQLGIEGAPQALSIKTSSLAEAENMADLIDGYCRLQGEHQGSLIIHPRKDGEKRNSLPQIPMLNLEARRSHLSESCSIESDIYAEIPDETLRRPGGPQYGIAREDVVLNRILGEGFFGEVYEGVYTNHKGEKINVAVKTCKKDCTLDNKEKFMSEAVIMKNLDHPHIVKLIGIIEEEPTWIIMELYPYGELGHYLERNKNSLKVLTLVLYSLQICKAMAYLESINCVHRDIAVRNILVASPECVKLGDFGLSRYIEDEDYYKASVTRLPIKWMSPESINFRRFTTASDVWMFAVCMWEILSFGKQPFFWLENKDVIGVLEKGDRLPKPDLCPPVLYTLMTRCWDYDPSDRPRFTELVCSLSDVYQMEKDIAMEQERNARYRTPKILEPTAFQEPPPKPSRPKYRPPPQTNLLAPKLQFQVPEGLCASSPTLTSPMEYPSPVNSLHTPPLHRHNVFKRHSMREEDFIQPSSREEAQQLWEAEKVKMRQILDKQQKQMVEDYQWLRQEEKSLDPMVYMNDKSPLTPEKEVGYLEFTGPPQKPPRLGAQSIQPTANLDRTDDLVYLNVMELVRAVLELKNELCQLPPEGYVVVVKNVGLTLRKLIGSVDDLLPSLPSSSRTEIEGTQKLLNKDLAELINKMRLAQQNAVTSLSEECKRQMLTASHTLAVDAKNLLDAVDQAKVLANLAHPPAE
UniProt P31749: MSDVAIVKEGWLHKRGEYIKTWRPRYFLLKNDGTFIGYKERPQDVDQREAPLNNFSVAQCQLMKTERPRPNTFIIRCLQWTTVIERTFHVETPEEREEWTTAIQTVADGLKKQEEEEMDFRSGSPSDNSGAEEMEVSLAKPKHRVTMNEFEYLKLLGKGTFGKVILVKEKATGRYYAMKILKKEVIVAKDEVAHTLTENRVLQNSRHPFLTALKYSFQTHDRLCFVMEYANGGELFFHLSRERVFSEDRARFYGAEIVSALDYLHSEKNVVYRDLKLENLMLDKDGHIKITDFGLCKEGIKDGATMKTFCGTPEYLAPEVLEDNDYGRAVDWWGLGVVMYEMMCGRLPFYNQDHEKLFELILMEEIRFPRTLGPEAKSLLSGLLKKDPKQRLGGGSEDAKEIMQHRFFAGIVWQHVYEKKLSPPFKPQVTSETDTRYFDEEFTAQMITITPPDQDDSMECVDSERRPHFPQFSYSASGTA
UniProt P28482, whole entry: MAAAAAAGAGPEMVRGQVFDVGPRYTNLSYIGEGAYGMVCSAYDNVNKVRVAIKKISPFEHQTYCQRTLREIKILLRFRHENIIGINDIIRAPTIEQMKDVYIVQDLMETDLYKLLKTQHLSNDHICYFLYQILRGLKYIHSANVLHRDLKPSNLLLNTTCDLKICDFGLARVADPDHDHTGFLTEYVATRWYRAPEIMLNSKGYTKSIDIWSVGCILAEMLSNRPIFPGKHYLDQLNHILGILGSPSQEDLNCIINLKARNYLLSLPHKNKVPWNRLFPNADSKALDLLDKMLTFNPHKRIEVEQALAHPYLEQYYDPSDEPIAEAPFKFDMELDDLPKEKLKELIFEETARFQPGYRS
UniProt P11362, whole entry, looked up: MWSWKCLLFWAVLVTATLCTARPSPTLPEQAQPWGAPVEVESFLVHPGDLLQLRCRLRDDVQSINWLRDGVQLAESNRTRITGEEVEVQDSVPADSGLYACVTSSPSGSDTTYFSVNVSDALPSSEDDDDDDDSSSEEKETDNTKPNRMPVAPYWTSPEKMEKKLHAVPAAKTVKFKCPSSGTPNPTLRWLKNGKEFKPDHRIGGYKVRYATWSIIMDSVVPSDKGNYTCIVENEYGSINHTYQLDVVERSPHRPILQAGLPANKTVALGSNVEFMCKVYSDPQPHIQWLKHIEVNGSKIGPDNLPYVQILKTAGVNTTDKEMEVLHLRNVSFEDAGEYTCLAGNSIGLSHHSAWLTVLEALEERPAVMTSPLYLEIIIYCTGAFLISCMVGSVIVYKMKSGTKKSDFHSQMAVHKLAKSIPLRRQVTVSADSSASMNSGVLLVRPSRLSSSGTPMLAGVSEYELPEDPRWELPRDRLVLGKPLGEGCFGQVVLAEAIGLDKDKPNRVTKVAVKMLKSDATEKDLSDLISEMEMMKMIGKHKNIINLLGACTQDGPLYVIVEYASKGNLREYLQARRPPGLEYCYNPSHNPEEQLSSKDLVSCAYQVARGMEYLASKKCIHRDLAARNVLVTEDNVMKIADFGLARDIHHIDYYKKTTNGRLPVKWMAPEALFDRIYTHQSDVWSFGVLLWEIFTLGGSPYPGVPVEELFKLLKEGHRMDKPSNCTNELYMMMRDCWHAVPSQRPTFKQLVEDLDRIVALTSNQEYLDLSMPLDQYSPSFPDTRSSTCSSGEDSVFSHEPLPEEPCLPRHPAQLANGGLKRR
UniProt Q15208: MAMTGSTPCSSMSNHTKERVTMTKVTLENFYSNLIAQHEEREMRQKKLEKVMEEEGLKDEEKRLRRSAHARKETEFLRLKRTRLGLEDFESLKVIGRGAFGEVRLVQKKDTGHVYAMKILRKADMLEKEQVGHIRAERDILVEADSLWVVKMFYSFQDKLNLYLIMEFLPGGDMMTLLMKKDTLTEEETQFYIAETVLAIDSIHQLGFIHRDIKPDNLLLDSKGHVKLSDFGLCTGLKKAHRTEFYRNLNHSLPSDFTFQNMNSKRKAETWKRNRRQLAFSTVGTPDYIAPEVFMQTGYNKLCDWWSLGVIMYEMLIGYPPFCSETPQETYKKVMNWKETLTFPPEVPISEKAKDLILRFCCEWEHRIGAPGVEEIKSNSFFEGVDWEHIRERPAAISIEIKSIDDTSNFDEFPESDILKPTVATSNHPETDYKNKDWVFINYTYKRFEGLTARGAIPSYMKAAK
UniProt Q00534, whole entry: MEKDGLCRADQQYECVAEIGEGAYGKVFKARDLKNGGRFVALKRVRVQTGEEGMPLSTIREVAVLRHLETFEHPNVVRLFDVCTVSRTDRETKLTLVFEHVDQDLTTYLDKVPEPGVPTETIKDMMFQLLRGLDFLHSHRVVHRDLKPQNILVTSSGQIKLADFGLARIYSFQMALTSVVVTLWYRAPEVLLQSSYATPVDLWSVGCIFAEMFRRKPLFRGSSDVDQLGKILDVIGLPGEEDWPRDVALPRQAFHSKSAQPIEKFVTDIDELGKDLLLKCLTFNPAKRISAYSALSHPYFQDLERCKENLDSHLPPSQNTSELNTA
UniProt P09619, whole entry: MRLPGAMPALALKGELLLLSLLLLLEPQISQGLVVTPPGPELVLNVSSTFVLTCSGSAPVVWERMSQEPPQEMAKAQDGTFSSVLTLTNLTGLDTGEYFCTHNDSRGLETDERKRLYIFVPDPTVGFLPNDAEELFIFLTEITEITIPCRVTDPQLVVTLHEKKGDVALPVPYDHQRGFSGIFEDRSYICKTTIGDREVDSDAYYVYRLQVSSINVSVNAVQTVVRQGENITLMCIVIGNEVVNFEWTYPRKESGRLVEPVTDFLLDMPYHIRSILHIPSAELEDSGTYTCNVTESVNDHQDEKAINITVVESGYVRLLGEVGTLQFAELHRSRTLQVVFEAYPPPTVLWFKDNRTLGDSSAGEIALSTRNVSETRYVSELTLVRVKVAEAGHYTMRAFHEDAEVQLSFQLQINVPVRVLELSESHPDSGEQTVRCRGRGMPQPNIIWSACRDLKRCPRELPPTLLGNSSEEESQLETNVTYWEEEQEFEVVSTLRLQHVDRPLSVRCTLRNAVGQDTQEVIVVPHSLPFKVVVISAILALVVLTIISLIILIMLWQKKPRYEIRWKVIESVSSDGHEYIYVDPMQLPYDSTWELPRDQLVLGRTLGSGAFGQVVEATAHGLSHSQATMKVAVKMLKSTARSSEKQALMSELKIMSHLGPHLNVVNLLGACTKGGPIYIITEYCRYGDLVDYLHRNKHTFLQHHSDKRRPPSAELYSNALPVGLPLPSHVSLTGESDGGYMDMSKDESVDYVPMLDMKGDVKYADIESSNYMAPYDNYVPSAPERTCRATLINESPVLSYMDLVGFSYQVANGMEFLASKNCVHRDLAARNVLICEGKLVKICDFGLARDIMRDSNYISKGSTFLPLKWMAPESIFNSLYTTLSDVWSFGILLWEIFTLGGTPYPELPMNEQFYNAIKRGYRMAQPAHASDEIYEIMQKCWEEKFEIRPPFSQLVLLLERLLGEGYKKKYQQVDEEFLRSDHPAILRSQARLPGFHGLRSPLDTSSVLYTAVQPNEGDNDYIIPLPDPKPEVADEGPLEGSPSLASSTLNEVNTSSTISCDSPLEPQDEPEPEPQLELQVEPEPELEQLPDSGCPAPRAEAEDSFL
UniProt P31152, whole entry: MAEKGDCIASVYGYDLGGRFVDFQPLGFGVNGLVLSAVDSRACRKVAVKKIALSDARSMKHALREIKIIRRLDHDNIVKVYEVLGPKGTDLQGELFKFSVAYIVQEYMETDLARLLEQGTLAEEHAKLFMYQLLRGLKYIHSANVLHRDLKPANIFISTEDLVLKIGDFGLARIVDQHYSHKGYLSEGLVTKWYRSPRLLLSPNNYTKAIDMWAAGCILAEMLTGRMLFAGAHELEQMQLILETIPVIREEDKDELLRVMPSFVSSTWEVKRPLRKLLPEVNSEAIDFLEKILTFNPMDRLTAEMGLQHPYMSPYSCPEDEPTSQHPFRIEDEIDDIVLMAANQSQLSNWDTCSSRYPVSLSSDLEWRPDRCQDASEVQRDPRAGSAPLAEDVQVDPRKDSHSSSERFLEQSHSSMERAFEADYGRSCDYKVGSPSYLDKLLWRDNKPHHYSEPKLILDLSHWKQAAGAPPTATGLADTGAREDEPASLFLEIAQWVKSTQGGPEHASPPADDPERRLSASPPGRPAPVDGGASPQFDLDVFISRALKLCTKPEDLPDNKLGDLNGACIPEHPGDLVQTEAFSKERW
UniProt O96013: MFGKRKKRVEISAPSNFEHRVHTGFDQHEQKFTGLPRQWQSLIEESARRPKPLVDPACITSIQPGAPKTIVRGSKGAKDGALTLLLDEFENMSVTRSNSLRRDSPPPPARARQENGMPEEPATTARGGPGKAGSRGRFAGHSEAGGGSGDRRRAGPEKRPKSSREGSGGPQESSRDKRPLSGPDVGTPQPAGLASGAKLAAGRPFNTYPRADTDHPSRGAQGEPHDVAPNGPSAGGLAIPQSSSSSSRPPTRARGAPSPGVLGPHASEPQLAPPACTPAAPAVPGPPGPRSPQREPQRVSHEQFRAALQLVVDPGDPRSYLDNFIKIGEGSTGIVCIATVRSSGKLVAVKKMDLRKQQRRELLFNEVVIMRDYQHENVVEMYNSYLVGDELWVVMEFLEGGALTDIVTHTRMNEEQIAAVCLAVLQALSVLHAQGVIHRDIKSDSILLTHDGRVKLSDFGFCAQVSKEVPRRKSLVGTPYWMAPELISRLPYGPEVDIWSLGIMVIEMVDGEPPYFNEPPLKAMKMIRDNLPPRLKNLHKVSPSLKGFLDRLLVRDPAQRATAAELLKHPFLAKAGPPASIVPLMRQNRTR

| Target | number of time points |
| --- | --- |
| PTK2 (UniProt Q05397) | 0 |
| RAF1_S257L (clone: RAF1_mut) (UniProt P04049) | 0 |
| CSNK1A1 (UniProt P48729) | 0 |
| LIMK2 (UniProt P53671) | 0 |
| PIK4CB (UniProt Q9UBF8) | 0 |
| HER2 (UniProt P04626) | 4 |
| PTK2B (UniProt Q14289) | 0 |
| AKT1 (UniProt P31749) | 0 |
| NTRK3 (UniProt Q16288) | 0 |
| MAPK1 (UniProt P28482) | 0 |
| RIPK2 (UniProt O43353) | 0 |
| AURKB (UniProt Q96GD4) | 0 |
| ERN1 (UniProt O75460) | 0 |
| CSNK1D (UniProt P48730) | 0 |
| ROR2 (UniProt Q01974) | 0 |
| FGFR1 (UniProt P11362) | 0 |

| Target | number of time points |
| --- | --- |
| STK38 (UniProt Q15208) | 0 |
| CDK6 (UniProt Q00534) | 0 |
| SYK (UniProt P43405) | 0 |
| PDGFRB (UniProt P09619) | 0 |
| MAP2K1 (UniProt Q02750) | 0 |
| TYK2 (UniProt P29597) | 0 |
| RIOK1 (UniProt Q9BRS2) | 0 |
| SPHK1 (UniProt Q9NYA1) | 0 |
| MAPK4 (UniProt P31152) | 0 |
| CDK10 (UniProt Q15131) | 0 |
| MAP2K2 (UniProt P36507) | 0 |
| LIMK1 (UniProt P53667) | 0 |
| PDPK1 (UniProt O15530) | 0 |
| PAK4 (UniProt O96013) | 0 |
| BMX (UniProt P51813) | 0 |

compound: C=CC(=O)Nc1cc(Nc2nccc(-c3cn(C)c4ccccc34)n2)c(OC)cc1N(C)CCN(C)C [Osimertinib]; test: as above; details: 2.5 µM; K562; 2-18 h

| Target | number of time points |
| --- | --- |
| PTK2 (UniProt Q05397) | 0 |
| RAF1_S257L (clone: RAF1_mut) (UniProt P04049) | 3 |
| CSNK1A1 (UniProt P48729) | 0 |
| LIMK2 (UniProt P53671) | 0 |
| PIK4CB (UniProt Q9UBF8) | 0 |
| HER2 (UniProt P04626) | 4 |
| PTK2B (UniProt Q14289) | 0 |
| AKT1 (UniProt P31749) | 0 |
| NTRK3 (UniProt Q16288) | 0 |
| MAPK1 (UniProt P28482) | 0 |
| RIPK2 (UniProt O43353) | 0 |
| AURKB (UniProt Q96GD4) | 0 |
| ERN1 (UniProt O75460) | 0 |
| CSNK1D (UniProt P48730) | 0 |
| ROR2 (UniProt Q01974) | 0 |
| FGFR1 (UniProt P11362) | 0 |

| Target | number of time points |
| --- | --- |
| STK38 (UniProt Q15208) | 0 |
| CDK6 (UniProt Q00534) | 0 |
| SYK (UniProt P43405) | 0 |
| PDGFRB (UniProt P09619) | 0 |
| MAP2K1 (UniProt Q02750) | 0 |
| TYK2 (UniProt P29597) | 0 |
| RIOK1 (UniProt Q9BRS2) | 0 |
| SPHK1 (UniProt Q9NYA1) | 0 |
| MAPK4 (UniProt P31152) | 0 |
| CDK10 (UniProt Q15131) | 0 |
| MAP2K2 (UniProt P36507) | 0 |
| LIMK1 (UniProt P53667) | 0 |
| PDPK1 (UniProt O15530) | 0 |
| PAK4 (UniProt O96013) | 0 |
| BMX (UniProt P51813) | 0 |

compound: C=CC(=O)Nc1cc(Nc2nccc(-c3cn(C4CC4)c4ccccc34)n2)c(OC)cc1N(C)CCN(C)C [Almonertinib (hydrochloride)]; test: as above; details: 2.5 µM; K562; 2-18 h

| Target | number of time points |
| --- | --- |
| PTK2 (UniProt Q05397) | 0 |
| RAF1_S257L (clone: RAF1_mut) (UniProt P04049) | 0 |
| CSNK1A1 (UniProt P48729) | 0 |
| LIMK2 (UniProt P53671) | 0 |
| PIK4CB (UniProt Q9UBF8) | 0 |
| HER2 (UniProt P04626) | 4 |
| PTK2B (UniProt Q14289) | 0 |
| AKT1 (UniProt P31749) | 0 |
| NTRK3 (UniProt Q16288) | 0 |
| MAPK1 (UniProt P28482) | 0 |
| RIPK2 (UniProt O43353) | 0 |
| AURKB (UniProt Q96GD4) | 0 |
| ERN1 (UniProt O75460) | 0 |
| CSNK1D (UniProt P48730) | 0 |
| ROR2 (UniProt Q01974) | 0 |
| FGFR1 (UniProt P11362) | 0 |

| Target | number of time points |
| --- | --- |
| STK38 (UniProt Q15208) | 0 |
| CDK6 (UniProt Q00534) | 0 |
| SYK (UniProt P43405) | 0 |
| PDGFRB (UniProt P09619) | 0 |
| MAP2K1 (UniProt Q02750) | 0 |
| TYK2 (UniProt P29597) | 0 |
| RIOK1 (UniProt Q9BRS2) | 0 |
| SPHK1 (UniProt Q9NYA1) | 0 |
| MAPK4 (UniProt P31152) | 0 |
| CDK10 (UniProt Q15131) | 0 |
| MAP2K2 (UniProt P36507) | 0 |
| LIMK1 (UniProt P53667) | 0 |
| PDPK1 (UniProt O15530) | 0 |
| PAK4 (UniProt O96013) | 0 |
| BMX (UniProt P51813) | 0 |
